The supplement of paper PMC12823440, “Inhibitors supercharge kinase turnover through native proteolytic circuits” (Nature, 2025)
This is one part of the list. Hit calls seldom repeat between salt and free forms of one compound.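 In K562 cells expressing nanoluciferase-fused kinases, luminescence was recorded at 4 h intervals between 2 and 18 h, normalized as percent of control with DMSO at 100% and a positive control at 0%. A significant (2 sigma) signal drop marks a time point as decreased. The authors' rule for a hit is not shown and takes in more than the number of time points.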

Amino acid sequences for entries named in this document (tags omitted). A change or cut given only in a name is not applied to a line headed by its entry.
UniProt Q9UM73: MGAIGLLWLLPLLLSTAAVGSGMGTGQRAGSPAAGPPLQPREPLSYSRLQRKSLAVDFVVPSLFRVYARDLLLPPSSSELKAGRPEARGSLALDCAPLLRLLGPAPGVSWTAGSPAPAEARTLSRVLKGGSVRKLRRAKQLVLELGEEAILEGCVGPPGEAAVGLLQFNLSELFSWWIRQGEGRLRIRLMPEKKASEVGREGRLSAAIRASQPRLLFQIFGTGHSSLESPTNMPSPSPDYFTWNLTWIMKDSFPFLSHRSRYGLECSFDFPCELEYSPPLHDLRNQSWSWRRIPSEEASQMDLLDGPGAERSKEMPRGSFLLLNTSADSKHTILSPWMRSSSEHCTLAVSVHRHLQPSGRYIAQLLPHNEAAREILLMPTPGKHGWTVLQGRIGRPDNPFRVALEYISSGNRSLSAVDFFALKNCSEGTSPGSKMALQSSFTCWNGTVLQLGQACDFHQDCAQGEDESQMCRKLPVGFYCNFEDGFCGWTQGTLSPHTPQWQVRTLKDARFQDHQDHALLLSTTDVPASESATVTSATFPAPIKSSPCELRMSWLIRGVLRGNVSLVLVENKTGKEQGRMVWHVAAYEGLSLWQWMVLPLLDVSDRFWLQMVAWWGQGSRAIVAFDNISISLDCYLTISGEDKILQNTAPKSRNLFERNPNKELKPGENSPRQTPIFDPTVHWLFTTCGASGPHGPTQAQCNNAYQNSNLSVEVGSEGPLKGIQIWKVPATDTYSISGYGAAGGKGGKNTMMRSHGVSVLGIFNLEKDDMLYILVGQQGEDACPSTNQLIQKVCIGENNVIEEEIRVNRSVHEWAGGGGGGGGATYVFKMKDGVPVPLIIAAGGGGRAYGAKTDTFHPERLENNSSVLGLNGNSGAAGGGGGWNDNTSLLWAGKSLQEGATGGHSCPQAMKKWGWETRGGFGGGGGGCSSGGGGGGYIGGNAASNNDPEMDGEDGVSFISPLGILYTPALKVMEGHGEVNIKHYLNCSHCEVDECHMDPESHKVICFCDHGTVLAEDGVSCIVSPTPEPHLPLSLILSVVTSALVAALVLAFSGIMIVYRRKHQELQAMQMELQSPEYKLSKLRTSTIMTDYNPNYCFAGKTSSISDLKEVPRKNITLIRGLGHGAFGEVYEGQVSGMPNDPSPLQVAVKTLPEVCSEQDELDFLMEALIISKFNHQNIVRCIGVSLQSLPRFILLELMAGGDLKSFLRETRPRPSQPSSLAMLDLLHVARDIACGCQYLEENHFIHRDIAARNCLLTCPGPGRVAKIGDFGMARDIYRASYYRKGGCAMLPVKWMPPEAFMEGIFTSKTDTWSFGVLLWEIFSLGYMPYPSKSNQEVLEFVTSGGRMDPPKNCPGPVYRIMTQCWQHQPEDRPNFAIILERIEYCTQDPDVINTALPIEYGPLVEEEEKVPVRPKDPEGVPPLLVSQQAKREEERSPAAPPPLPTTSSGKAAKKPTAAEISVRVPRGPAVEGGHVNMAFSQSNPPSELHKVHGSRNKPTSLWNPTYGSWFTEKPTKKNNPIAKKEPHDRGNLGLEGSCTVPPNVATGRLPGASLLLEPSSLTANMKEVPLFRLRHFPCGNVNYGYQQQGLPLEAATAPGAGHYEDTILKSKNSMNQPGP
UniProt O14965: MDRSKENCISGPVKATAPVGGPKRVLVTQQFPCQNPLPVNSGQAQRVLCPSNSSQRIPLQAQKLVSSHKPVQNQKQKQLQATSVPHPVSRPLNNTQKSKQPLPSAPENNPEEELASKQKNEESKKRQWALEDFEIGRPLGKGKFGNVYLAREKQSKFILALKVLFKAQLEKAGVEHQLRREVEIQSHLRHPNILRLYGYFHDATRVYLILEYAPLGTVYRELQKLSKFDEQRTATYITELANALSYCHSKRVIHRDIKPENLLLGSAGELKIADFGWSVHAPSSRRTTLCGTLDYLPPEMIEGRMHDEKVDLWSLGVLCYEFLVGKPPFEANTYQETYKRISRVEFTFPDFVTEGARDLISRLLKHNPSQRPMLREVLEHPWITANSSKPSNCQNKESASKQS
UniProt Q96GD4, whole entry: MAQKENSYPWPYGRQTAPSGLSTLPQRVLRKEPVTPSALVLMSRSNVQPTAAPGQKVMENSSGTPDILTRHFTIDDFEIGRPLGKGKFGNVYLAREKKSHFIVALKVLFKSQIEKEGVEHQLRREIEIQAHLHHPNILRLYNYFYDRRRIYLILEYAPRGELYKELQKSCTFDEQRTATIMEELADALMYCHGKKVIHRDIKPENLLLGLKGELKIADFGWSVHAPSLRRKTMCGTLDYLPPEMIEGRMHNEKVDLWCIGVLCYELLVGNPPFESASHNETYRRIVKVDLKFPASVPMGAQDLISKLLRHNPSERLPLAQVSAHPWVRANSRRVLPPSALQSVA
UniProt Q9UQB9: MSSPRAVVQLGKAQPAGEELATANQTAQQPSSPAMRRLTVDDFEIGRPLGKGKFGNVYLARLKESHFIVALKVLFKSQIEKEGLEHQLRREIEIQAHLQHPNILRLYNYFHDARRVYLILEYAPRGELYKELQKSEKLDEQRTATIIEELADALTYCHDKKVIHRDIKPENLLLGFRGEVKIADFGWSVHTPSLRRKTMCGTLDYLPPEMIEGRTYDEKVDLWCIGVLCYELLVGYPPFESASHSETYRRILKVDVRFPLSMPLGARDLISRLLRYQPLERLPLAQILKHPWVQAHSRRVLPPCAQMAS
UniProt P15056, whole entry, looked up: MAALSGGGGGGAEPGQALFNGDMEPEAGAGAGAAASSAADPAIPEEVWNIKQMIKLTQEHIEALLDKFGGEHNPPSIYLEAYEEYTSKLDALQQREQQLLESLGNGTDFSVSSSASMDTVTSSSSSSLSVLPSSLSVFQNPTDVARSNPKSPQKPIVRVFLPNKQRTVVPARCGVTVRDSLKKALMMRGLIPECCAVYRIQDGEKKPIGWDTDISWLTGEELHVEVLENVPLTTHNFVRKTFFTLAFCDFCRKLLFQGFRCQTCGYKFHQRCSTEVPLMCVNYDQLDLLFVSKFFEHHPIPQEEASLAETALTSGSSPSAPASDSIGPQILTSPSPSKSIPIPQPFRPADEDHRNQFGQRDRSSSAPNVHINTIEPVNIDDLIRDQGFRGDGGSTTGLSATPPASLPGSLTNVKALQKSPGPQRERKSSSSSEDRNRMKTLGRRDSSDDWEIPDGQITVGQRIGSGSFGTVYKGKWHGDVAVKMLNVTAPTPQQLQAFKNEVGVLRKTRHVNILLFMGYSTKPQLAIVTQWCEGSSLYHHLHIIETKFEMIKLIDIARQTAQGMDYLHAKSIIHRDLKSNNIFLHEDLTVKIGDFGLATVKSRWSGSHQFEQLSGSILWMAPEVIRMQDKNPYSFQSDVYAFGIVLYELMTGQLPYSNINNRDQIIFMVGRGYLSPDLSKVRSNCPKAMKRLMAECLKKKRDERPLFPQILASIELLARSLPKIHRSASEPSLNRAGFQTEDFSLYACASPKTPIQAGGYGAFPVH
UniProt Q06187: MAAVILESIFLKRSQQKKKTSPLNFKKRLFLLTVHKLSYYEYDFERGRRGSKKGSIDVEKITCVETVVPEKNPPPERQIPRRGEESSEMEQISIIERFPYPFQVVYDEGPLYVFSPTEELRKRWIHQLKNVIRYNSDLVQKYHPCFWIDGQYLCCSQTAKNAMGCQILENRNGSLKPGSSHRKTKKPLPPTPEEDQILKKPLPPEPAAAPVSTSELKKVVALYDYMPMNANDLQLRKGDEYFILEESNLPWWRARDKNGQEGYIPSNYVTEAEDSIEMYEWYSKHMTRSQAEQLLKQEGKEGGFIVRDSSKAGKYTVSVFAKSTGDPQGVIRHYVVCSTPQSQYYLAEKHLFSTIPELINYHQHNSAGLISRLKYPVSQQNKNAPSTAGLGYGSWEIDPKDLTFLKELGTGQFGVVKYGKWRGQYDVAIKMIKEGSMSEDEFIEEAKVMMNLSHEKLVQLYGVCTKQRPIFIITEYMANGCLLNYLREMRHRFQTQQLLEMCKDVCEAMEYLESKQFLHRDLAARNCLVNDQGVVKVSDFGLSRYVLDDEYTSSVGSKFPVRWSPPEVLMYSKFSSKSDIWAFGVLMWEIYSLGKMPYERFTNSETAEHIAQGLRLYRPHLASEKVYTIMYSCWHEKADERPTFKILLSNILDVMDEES
UniProt Q13555: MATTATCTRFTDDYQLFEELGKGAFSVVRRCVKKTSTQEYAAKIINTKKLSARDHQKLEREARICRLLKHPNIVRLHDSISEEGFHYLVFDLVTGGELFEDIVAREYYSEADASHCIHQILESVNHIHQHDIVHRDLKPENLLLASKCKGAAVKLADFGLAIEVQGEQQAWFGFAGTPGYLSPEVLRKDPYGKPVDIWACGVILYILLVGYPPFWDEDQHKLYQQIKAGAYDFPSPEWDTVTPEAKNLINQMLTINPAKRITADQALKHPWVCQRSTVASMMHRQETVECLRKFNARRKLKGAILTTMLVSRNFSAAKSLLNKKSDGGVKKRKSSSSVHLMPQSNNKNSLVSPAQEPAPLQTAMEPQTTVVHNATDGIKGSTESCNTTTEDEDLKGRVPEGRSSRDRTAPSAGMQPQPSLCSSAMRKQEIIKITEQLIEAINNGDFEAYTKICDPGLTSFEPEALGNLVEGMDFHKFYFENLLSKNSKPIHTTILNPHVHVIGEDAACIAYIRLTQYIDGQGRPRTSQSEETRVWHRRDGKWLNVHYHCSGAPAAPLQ
UniProt Q00526: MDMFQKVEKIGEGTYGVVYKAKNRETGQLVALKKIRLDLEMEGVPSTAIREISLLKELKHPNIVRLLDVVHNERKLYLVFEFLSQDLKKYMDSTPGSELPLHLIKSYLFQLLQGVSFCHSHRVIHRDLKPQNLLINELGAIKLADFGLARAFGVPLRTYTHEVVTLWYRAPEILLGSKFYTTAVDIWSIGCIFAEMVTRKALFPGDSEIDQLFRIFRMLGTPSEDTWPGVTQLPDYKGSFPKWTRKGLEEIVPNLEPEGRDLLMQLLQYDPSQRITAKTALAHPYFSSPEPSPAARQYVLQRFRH
UniProt Q00535, whole entry, looked up: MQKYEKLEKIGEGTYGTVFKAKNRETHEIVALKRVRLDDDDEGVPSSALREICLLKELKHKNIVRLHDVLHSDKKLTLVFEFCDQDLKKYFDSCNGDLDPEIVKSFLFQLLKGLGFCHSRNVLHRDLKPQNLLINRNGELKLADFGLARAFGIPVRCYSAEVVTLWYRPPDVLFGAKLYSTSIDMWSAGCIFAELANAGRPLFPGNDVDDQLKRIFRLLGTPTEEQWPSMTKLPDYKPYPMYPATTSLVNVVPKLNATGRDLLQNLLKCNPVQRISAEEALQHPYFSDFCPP
UniProt Q00534, whole entry: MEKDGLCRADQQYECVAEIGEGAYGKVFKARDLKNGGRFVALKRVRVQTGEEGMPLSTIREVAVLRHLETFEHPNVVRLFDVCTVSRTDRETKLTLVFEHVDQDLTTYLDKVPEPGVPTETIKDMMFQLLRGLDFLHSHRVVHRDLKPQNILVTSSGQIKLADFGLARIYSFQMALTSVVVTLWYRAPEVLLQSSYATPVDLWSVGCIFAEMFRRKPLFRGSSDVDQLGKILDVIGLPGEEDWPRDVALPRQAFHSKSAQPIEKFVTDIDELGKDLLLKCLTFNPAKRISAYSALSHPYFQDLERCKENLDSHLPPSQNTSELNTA
UniProt O96017, whole entry: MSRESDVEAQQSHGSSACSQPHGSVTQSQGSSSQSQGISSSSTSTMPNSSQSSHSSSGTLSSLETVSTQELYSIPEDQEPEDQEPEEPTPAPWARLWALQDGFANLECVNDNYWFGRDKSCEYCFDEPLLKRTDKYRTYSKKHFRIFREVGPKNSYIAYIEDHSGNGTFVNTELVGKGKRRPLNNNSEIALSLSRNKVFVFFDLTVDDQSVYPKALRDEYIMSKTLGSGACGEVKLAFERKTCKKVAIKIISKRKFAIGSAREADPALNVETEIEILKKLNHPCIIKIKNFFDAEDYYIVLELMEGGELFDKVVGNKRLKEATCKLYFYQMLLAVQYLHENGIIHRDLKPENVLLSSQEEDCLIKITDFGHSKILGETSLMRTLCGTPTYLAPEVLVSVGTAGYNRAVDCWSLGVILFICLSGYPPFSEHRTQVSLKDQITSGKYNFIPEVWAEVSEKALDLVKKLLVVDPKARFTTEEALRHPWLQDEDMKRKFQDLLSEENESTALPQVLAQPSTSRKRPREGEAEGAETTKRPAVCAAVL
UniProt P41240: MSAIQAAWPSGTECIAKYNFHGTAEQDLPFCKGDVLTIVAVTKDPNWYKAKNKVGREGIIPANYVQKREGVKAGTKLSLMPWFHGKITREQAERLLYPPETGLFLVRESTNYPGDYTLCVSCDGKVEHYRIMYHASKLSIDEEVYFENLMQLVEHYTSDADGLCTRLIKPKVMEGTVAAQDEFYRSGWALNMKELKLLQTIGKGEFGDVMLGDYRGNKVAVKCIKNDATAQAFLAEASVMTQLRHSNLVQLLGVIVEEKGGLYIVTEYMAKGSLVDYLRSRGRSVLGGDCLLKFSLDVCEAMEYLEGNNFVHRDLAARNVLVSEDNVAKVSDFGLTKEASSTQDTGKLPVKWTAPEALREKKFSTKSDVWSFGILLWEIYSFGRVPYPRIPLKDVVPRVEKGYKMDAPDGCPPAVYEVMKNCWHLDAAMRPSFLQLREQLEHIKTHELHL

Tests used:
Test in all cases: number of time points (of 5) at which kinase-Nluc abundance scored as decreased, DMSO-normalised (count); higher = more persistent destabilization
Details in all cases: K562; 2-18 h
[1] = biological target: ALK (UniProt Q9UM73)
[2] = biological target: ARAF (UniProt P10398)
[3] = biological target: AURKA (UniProt O14965)
[4] = biological target: AURKB (UniProt Q96GD4)
[5] = biological target: AURKC (UniProt Q9UQB9)
[6] = biological target: BLK (UniProt P51451)
[7] = biological target: BMX (UniProt P51813)
[8] = biological target: BRAF (UniProt P15056)
[9] = test system: BRAF_V600E
[10] = biological target: BTK (UniProt Q06187)
[11] = biological target: CAMK2A (UniProt Q9UQM7)
[12] = biological target: CAMK2G (UniProt Q13555)
[13] = biological target: CDK10 (UniProt Q15131)
[14] = biological target: CDK2 (UniProt P24941)
[15] = biological target: CDK3 (UniProt Q00526)
[16] = biological target: CDK5 (UniProt Q00535)
[17] = biological target: CDK6 (UniProt Q00534)
[18] = biological target: CHEK2 (UniProt O96017)
[19] = biological target: CSF1R (UniProt P07333)
[20] = biological target: CSK (UniProt P41240)

Measured: number of time points

Cc1nc(Nc2cnn(C3CCNCC3)c2)nc2c1N(C)C(=O)c1cc3ccccc3cc1N2C (2.5 µM)
0: all assays above

COc1cc2nccc(Nc3cccc(Oc4ccccc4)c3)c2cc1OC (2.5 µM)
1: [3] | [16]
0: all other assays above

Nc1ccc(Sc2nc3ccccc3s2)c(Cl)c1 [KRAS inhibitor-9] (10 µM)
0: all assays above

O=C1CCC(N2C(=O)c3cccc(OCCCCCOc4ccc(CC(=O)Nc5cc(C6CCC6)[nH]n5)cc4)c3C2=O)C(=O)N1 (stereo not given) [PROTAC CDK9 Degrader-1] (10 µM)
1: [9]
3: [1] | [3]
0: all other assays above

CCCS(=O)(=O)N[C@H]1C[C@@H](N(C)c2ncnc3[nH]ccc23)C1 [Abrocitinib] (10 µM)
0: all assays above

Nc1nccc(Oc2ccc3c(C(=O)Nc4cccc(C(F)(F)F)c4)cccc3c2)n1 (10 µM)
1: [2] | [9] | [11] | [13]
2: [5] | [18]
0: all other assays above

Cc1ccc2c(NS(=O)(=O)c3ccccc3Cl)cccc2c1Oc1ncccc1-c1ccnc(N[C@H]2CCCNC2)n1 (2.5 µM)
0: all assays above

COc1ccc(CN2CCC(c3ccc4nc(C(=O)N5CCN(Cc6ccc(C(F)(F)F)cc6)CC5)[nH]c4c3)CC2)cn1 (2.5 µM)
1: [9]
0: all other assays above

CCc1c(C(=O)NNC(=O)[C@H](O)c2cc(F)cc(F)c2)ccc(O)c1C (10 µM)
0: all assays above

C[C@@H](NC(=O)c1ncnc(N)c1Cl)c1ncc(C(=O)Nc2cc(C(F)(F)F)c(Cl)cn2)s1 (2.5 µM)
1: [4] | [8]
2: [1] | [3] | [12] | [18]
3: [7] | [9] | [19]
0: all other assays above

N#C/C(=C/c1ccc(O)c(O)c1)C(=O)N1CCc2ccccc21 [Tyrphostin AG 528] (10 µM)
0: all assays above

Nc1ccc(O)c(C(=O)O)c1 [5-Aminosalicylic Acid] (10 µM)
0: all assays above

COc1cc2nc(-c3cc(F)ccc3O)nc(N[C@@H]3CNC[C@H]3C(C)(C)O)c2cc1OC (2.5 µM)
1: [6]
0: all other assays above

COc1c(Nc2ncc(Cl)c(N[C@H]3[C@@H](C(N)=O)[C@@H]4C=C[C@H]3C4)n2)ccc2c1CC[C@@H](N1CCOCC1)CC2 (10 µM)
2: [18]
0: all other assays above

COc1ccc(Cl)cc1N(CC(=O)Nc1ccc2c(c1)OCO2)S(=O)(=O)c1ccccc1 (2.5 µM)
0: all assays above

C=CC(=O)Nc1cccc(Oc2nc(Nc3ccc(N4CCN(C)CC4)cc3OC)ncc2Cl)c1 (10 µM)
2: [7]
0: all other assays above

O=c1cc(N2CCOCC2)oc2c(-c3cccc4c3sc3ccccc34)cccc12 (10 µM)
0: all assays above

Cc1nc2c(NCc3cccc(S(C)(=O)=O)c3)nccn2c1-c1ccc(O)c(F)c1 (10 µM)
0: all assays above

CN(C)c1cc[n+](Cc2ccc(OCCOc3ccc(C[n+]4ccc(N(C)C)cc4)cc3)cc2)cc1 (10 µM)
0: all assays above

CNCc1cc(Oc2ccc3c(ccn3C(=O)Nc3cc(C(F)(F)F)n(C)n3)c2)ncn1 [Acrizanib] (10 µM)
4: [7]
0: all other assays above

CN1C(=O)N[C@@H](Cc2c[nH]c3c(Cl)cccc23)C1=O [Necrostatin 2 (S enantiomer)] (10 µM)
0: all assays above

No new results follow: two of the compounds above.
O=c1cc(N2CCOCC2)oc2c(-c3cccc4c3sc3ccccc34)cccc12 (10 µM)
0: all assays above

Cc1nc2c(NCc3cccc(S(C)(=O)=O)c3)nccn2c1-c1ccc(O)c(F)c1 (10 µM)
0: all assays above

Later entries

O=CN1CCN(c2ccc(C=C3C(=O)Nc4ccccc43)cc2)CC1 (10 µM)
0: all assays above

O=C(Nc1ccnc(NC(=O)C2CC2)c1)c1c(Cl)cccc1Cl (10 µM)
4: [9]
1: [3] | [6]
0: all other assays above

O=C1Cc2ccccc2N1 [Oxindole] (10 µM)
0: all assays above
